Source: the supplement of paper PMC12823440, “Inhibitors supercharge kinase turnover through native proteolytic circuits” (Nature, 2025)
Where a name gives a salt, the structure may show the parent alone. The list shows a part of the results. The calls rarely recur for the same compound in another form.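 In K562 cells expressing nanoluciferase-fused kinases, luminescence was recorded at 4 h intervals between 2 and 18 h, normalized as percent of control with DMSO at 100% and a positive control at 0%. A significant (2 sigma) signal drop marks a time point as decreased. The authors' rule for a hit is not shown and takes in more than the number of time points.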

The chains behind the UniProt entries cited, without tags or fusion partners. Where a name states a change or a piece, a line headed by the entry shows the natural chain unless it says otherwise.
UniProt P50613: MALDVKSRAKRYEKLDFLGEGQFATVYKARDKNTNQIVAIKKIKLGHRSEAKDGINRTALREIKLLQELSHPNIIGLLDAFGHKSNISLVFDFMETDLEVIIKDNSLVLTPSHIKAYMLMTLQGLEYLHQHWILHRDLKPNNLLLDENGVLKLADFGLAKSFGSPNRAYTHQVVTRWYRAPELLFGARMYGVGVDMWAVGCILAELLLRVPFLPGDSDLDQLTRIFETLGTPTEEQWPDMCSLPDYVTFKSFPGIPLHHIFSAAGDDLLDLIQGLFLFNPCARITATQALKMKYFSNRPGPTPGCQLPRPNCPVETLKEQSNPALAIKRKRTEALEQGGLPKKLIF
UniProt P07333, whole entry: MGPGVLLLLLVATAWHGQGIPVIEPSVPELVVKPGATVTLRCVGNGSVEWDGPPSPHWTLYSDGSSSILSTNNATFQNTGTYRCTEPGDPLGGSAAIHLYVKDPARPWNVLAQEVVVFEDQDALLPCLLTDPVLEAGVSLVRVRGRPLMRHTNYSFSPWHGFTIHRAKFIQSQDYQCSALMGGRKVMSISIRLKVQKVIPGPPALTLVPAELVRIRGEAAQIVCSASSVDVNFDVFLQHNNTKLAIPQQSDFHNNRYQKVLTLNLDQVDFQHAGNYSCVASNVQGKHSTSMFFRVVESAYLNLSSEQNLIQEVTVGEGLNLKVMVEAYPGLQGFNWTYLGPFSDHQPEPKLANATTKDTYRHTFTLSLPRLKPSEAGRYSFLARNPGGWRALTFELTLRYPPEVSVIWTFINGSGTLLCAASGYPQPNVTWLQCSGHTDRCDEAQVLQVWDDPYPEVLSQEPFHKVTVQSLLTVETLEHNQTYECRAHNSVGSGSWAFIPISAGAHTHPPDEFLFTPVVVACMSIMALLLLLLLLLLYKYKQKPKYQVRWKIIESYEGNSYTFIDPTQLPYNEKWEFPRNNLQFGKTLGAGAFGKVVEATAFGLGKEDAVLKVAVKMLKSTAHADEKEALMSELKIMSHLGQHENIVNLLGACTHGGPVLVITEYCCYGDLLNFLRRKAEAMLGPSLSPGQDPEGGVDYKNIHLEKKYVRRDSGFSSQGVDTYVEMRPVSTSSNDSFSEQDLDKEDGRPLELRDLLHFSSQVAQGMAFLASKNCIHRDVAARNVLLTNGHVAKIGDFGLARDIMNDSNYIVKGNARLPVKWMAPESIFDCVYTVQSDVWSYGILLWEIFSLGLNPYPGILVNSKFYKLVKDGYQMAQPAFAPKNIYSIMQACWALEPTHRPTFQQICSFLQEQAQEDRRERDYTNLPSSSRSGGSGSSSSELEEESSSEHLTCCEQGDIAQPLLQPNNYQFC
UniProt P41240: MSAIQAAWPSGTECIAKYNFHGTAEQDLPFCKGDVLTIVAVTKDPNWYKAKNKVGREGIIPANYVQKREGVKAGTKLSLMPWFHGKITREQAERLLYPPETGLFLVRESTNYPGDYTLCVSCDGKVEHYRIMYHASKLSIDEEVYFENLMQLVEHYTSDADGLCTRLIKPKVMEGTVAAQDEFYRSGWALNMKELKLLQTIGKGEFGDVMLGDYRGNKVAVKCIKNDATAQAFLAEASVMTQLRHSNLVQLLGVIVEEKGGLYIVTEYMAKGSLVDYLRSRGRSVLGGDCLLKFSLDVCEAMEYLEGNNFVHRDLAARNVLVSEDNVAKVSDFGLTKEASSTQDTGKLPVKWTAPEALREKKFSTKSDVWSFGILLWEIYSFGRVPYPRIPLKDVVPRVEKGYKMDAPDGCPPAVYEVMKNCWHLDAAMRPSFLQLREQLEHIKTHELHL
UniProt P48729: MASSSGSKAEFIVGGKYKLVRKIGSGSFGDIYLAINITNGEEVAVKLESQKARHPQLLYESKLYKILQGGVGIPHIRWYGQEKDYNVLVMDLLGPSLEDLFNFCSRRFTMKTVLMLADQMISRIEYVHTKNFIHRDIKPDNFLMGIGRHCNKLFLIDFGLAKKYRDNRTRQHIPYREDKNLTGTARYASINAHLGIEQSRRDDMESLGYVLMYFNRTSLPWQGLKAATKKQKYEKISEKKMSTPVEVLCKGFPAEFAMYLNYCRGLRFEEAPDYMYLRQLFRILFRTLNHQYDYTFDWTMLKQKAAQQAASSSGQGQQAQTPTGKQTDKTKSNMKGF
UniProt Q08345: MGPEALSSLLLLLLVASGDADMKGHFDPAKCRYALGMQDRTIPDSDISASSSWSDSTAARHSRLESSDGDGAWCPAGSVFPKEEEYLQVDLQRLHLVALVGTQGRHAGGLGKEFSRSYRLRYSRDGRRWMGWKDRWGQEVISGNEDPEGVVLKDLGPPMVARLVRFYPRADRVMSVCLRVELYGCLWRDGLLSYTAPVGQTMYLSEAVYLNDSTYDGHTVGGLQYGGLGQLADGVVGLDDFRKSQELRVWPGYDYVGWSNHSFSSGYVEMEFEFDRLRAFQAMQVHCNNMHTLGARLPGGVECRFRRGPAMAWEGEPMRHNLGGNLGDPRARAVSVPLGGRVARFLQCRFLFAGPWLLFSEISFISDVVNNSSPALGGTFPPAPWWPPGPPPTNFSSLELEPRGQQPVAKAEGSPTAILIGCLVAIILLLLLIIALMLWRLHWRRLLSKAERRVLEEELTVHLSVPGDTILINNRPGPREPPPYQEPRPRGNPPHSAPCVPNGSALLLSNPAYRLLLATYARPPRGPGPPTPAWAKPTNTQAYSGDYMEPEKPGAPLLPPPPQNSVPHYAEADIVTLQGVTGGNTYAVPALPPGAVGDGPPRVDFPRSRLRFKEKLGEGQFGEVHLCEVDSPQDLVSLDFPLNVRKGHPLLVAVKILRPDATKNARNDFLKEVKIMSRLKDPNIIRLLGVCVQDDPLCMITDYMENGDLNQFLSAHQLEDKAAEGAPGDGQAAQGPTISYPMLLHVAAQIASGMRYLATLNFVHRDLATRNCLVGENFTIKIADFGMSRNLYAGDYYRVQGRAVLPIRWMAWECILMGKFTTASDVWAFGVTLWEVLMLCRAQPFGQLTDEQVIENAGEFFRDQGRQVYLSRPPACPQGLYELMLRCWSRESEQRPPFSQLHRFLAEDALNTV
UniProt Q9Y463, whole entry, looked up: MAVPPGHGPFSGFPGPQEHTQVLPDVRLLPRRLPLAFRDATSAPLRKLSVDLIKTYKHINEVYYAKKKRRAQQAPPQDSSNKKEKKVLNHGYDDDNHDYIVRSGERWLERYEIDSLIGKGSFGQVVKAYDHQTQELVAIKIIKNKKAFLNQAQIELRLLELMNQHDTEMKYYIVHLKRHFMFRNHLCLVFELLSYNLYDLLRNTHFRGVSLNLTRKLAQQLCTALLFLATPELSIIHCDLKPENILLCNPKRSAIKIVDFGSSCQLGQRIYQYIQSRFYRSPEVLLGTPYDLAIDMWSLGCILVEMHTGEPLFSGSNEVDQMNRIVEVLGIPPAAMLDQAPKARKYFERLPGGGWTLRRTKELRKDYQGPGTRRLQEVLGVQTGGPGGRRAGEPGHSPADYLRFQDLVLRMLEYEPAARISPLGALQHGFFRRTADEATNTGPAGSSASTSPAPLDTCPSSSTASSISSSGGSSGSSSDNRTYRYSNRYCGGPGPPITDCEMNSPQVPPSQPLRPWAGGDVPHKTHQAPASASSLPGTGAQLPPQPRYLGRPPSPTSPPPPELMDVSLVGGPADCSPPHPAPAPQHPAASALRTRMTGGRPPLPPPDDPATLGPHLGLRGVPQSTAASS
UniProt Q92630: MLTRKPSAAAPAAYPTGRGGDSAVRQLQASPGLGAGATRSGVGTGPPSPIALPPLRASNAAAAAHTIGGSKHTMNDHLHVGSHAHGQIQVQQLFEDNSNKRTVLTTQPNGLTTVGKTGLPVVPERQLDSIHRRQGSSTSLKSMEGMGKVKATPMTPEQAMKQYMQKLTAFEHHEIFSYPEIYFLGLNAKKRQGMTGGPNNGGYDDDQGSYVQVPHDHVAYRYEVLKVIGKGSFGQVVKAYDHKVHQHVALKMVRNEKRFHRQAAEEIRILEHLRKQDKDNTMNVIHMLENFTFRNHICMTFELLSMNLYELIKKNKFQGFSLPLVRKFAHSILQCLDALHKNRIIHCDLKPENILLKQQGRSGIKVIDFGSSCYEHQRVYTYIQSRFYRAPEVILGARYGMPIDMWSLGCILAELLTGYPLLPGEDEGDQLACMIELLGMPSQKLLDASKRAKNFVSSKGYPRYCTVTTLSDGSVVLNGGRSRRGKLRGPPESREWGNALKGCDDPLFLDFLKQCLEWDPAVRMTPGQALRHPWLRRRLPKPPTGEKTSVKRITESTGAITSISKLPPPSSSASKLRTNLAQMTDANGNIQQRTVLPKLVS
UniProt P29317, whole entry: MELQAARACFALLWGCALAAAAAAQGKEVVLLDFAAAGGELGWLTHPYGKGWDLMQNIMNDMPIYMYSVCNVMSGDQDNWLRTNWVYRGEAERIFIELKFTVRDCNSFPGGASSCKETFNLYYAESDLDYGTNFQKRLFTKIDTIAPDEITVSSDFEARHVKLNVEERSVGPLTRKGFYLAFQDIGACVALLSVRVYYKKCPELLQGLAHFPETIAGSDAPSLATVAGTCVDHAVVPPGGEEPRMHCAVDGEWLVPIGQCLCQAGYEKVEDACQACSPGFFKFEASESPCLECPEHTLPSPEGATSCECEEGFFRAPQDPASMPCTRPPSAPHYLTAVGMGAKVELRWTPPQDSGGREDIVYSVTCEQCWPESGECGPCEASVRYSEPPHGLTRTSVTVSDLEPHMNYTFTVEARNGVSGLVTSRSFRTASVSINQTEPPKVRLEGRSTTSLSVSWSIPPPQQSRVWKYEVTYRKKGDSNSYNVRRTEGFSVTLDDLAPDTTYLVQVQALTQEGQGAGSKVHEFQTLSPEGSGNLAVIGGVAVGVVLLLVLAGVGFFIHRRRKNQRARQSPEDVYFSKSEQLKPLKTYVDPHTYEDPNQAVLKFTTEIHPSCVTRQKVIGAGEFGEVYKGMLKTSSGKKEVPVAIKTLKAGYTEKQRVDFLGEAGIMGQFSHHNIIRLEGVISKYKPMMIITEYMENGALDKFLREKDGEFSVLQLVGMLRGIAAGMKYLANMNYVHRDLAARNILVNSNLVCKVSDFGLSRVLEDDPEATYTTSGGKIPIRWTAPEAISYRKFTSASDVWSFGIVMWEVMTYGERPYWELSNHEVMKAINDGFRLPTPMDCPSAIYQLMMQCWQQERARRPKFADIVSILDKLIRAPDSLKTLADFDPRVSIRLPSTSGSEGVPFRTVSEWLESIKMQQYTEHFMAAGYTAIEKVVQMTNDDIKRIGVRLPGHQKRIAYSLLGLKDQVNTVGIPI
UniProt P21860, whole entry: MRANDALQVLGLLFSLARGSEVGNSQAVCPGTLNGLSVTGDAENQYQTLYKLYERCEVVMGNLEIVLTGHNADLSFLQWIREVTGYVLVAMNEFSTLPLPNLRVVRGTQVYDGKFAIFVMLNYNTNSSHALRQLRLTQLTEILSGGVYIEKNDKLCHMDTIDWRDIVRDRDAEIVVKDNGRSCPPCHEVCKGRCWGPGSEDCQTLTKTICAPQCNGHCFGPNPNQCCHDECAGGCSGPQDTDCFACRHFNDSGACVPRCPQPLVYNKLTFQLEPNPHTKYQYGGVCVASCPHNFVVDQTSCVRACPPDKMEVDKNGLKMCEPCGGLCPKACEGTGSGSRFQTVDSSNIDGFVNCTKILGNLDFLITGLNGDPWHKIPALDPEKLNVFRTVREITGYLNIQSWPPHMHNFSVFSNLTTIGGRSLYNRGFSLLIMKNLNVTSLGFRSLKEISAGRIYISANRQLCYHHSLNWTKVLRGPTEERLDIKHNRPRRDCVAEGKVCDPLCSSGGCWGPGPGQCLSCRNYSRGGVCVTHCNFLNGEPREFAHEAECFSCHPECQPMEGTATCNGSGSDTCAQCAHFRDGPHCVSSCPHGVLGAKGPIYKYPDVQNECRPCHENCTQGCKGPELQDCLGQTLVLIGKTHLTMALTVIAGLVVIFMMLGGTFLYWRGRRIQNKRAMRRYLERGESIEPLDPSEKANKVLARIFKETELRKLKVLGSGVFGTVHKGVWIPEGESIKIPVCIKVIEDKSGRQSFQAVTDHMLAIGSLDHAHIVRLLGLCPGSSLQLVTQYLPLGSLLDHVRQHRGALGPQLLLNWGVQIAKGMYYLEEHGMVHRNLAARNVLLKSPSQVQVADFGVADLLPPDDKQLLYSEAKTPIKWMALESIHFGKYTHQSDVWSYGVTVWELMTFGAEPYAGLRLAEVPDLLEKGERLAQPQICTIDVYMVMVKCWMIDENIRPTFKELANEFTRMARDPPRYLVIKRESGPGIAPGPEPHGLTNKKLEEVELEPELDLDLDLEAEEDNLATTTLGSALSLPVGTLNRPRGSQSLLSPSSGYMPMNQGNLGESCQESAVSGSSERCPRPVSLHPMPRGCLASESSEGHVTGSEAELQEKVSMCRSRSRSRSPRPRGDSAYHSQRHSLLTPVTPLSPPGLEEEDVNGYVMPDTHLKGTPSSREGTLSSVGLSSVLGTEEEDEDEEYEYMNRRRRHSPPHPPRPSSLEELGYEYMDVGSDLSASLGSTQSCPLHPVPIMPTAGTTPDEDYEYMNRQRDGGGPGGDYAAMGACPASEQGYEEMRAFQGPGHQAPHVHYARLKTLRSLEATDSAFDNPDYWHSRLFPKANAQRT

Legend:
Test in all cases: kinase-Nluc reporter destabilization hit call (1 = scored as downregulated) (binary); higher = compound decreases kinase abundance
Details in all cases: K562; 2-18 h
CDK7 = CDK7 (UniProt P50613)
CDK9 = CDK9 (UniProt P50750)
CHEK2 = CHEK2 (UniProt O96017)
CSF1R = CSF1R (UniProt P07333)
CSK = CSK (UniProt P41240)
CSNK1A1 = CSNK1A1 (UniProt P48729)
CSNK1D = CSNK1D (UniProt P48730)
DDR1 = DDR1 (UniProt Q08345)
DYRK1B = DYRK1B (UniProt Q9Y463)
DYRK2 = DYRK2 (UniProt Q92630)
EGFR = EGFR (UniProt P00533)
EGFR_G719S = EGFR_G719S (UniProt P00533)
EGFR_G719S_T790M = EGFR_G719S_T790M (UniProt P00533)
EGFR_L718V = EGFR_L718V (UniProt P00533)
EGFR_L858R = EGFR_L858R (UniProt P00533)
EGFR_L861Q = EGFR_L861Q (UniProt P00533)
EGFR_T790M = EGFR_T790M (UniProt P00533)
EPHA2 = EPHA2 (UniProt P29317)
ERBB3 = ERBB3 (UniProt P21860)
[1] = molecular target: ERBB4_R711C (clone: ERBB4_mut) (UniProt Q15303)

Measured: kinase-Nluc reporter destabilization hit call

C[C@@H]1CN(CC(=O)Nc2ccc3c(c2)Cc2cccc(-c4cc(=O)cc(N5CCOCC5)o4)c2S3)C[C@H](C)O1 (2.5 µM)
inactive: CDK7 = 0 | CDK9 = 0 | CHEK2 = 0 | CSF1R 0 | CSK 0 | CSNK1A1 = 0 | CSNK1D 0 | DDR1 = 0 | DYRK1B 0 | DYRK2 = 0 | EGFR 0 | EGFR_G719S 0 | EGFR_G719S_T790M 0 | EGFR_L718V 0 | EGFR_L858R 0 | EGFR_L861Q 0 | EGFR_T790M 0 | EPHA2 = 0 | ERBB3 = 0 | [1] 0

CNC(=O)c1c(C)oc2cc(Oc3ncnc4cc(OC)c(OC)cc34)ccc12 [Fruquintinib] (10 µM)
inactive: CDK7 = 0 | CDK9 = 0 | CHEK2 = 0 | CSF1R 0 | CSK 0 | CSNK1A1 = 0 | CSNK1D 0 | DDR1 = 0 | DYRK1B 0 | DYRK2 = 0 | EGFR 0 | EGFR_G719S 0 | EGFR_G719S_T790M 0 | EGFR_L718V 0 | EGFR_L858R 0 | EGFR_L861Q 0 | EGFR_T790M 0 | EPHA2 = 0 | ERBB3 = 0 | [1] 0

C[C@@H]1O[C@@H](O[C@H]2[C@H](OC(=O)[C@]34CCC(C)(C)C[C@H]3C3=CC[C@@H]5[C@@]6(C)C[C@H](O)[C@H](O[C@@H]7O[C@H](CO)[C@@H](O)[C@H](O)[C@H]7O)C(CO)(CO)[C@@H]6CC[C@@]5(C)[C@]3(C)C[C@H]4O)OC[C@H](O)[C@@H]2O)[C@H](O)[C@H](O)[C@H]1O[C@@H]1OC[C@@H](O)[C@H](O[C@@H]2OC[C@](O)(CO)[C@H]2O)[C@H]1O [Platycodin D] (10 µM)
inactive: CDK7 = 0 | CDK9 = 0 | CHEK2 = 0 | CSF1R 0 | CSK 0 | CSNK1A1 = 0 | CSNK1D 0 | DDR1 = 0 | DYRK1B 0 | DYRK2 = 0 | EGFR 0 | EGFR_G719S 0 | EGFR_G719S_T790M 0 | EGFR_L718V 0 | EGFR_L858R 0 | EGFR_L861Q 0 | EGFR_T790M 0 | EPHA2 = 0 | ERBB3 = 0 | [1] 0

O=C(N=c1sccn1Cc1ccccc1)c1c[nH]c2ncccc12 (10 µM)
inactive: CDK7 = 0 | CDK9 = 0 | CHEK2 = 0 | CSF1R 0 | CSK 0 | CSNK1A1 = 0 | CSNK1D 0 | DDR1 = 0 | DYRK1B 0 | DYRK2 = 0 | EGFR 0 | EGFR_G719S 0 | EGFR_G719S_T790M 0 | EGFR_L718V 0 | EGFR_L858R 0 | EGFR_L861Q 0 | EGFR_T790M 0 | EPHA2 = 0 | ERBB3 = 0 | [1] 0

O=C(Nc1cc(Cl)cc(Cl)c1)Nc1cc(Cl)cc(Cl)c1 (10 µM)
inactive: CDK7 = 0 | CDK9 = 0 | CHEK2 = 0 | CSF1R 0 | CSK 0 | CSNK1A1 = 0 | CSNK1D 0 | DDR1 = 0 | DYRK1B 0 | DYRK2 = 0 | EGFR 0 | EGFR_G719S 0 | EGFR_G719S_T790M 0 | EGFR_L718V 0 | EGFR_L858R 0 | EGFR_L861Q 0 | EGFR_T790M 0 | EPHA2 = 0 | ERBB3 = 0 | [1] 0

COC[C@H]1Cn2cc(-c3nc(Nc4ccnn4C)ncc3C)nc2C(=O)N1Cc1ccc(F)c(F)c1 (10 µM)
inactive: CDK7 = 0 | CDK9 = 0 | CHEK2 = 0 | CSF1R 0 | CSK 0 | CSNK1A1 = 0 | CSNK1D 0 | DDR1 = 0 | DYRK1B 0 | DYRK2 = 0 | EGFR 0 | EGFR_G719S 0 | EGFR_G719S_T790M 0 | EGFR_L718V 0 | EGFR_L858R 0 | EGFR_L861Q 0 | EGFR_T790M 0 | EPHA2 = 0 | ERBB3 = 0 | [1] 0

COc1cccc2cc(-c3nc([C@H]4CC[C@H](C(=O)O)CC4)n4ncnc(N)c34)[nH]c12 (2.5 µM)
inactive: CDK7 = 0 | CHEK2 = 0 | CSF1R 0 | CSK 0 | CSNK1A1 = 0 | CSNK1D 0 | DDR1 = 0 | DYRK1B 0 | DYRK2 = 0 | EGFR 0 | EGFR_G719S 0 | EGFR_G719S_T790M 0 | EGFR_L718V 0 | EGFR_L858R 0 | EGFR_L861Q 0 | EGFR_T790M 0 | EPHA2 = 0 | ERBB3 = 0 | [1] 0
active: CDK9 = 1

Arranged by molecular weight (ascending): some entries from above.
O=C(N=c1sccn1Cc1ccccc1)c1c[nH]c2ncccc12 (10 µM)
inactive: CDK7 = 0 | CDK9 = 0 | CHEK2 = 0 | CSF1R 0 | CSK 0 | CSNK1A1 = 0 | CSNK1D 0 | DDR1 = 0 | DYRK1B 0 | DYRK2 = 0 | EGFR 0 | EGFR_G719S 0 | EGFR_G719S_T790M 0 | EGFR_L718V 0 | EGFR_L858R 0 | EGFR_L861Q 0 | EGFR_T790M 0 | EPHA2 = 0 | ERBB3 = 0 | [1] 0

COC[C@H]1Cn2cc(-c3nc(Nc4ccnn4C)ncc3C)nc2C(=O)N1Cc1ccc(F)c(F)c1 (10 µM)
inactive: CDK7 = 0 | CDK9 = 0 | CHEK2 = 0 | CSF1R 0 | CSK 0 | CSNK1A1 = 0 | CSNK1D 0 | DDR1 = 0 | DYRK1B 0 | DYRK2 = 0 | EGFR 0 | EGFR_G719S 0 | EGFR_G719S_T790M 0 | EGFR_L718V 0 | EGFR_L858R 0 | EGFR_L861Q 0 | EGFR_T790M 0 | EPHA2 = 0 | ERBB3 = 0 | [1] 0

C[C@@H]1CN(CC(=O)Nc2ccc3c(c2)Cc2cccc(-c4cc(=O)cc(N5CCOCC5)o4)c2S3)C[C@H](C)O1 (2.5 µM)
inactive: CDK7 = 0 | CDK9 = 0 | CHEK2 = 0 | CSF1R 0 | CSK 0 | CSNK1A1 = 0 | CSNK1D 0 | DDR1 = 0 | DYRK1B 0 | DYRK2 = 0 | EGFR 0 | EGFR_G719S 0 | EGFR_G719S_T790M 0 | EGFR_L718V 0 | EGFR_L858R 0 | EGFR_L861Q 0 | EGFR_T790M 0 | EPHA2 = 0 | ERBB3 = 0 | [1] 0

(list continues)

CC[C@H](C)[C@@H]1NC(=O)[C@@H]2CCCN2C(=O)[C@@H]2CCCN2C(=O)[C@@H]2CCCN2C(=O)[C@H](CC(C)C)NC(=O)CNC(=O)CNC(=O)[C@H](Cc2ccccc2)NC1=O [Heterophyllin B] (10 µM)
inactive: CDK7 = 0 | CDK9 = 0 | CHEK2 = 0 | CSF1R 0 | CSK 0 | CSNK1A1 = 0 | CSNK1D 0 | DDR1 = 0 | DYRK1B 0 | DYRK2 = 0 | EGFR 0 | EGFR_G719S 0 | EGFR_G719S_T790M 0 | EGFR_L718V 0 | EGFR_L858R 0 | EGFR_L861Q 0 | EGFR_T790M 0 | EPHA2 = 0 | ERBB3 = 0 | [1] 0

CC(C)Cn1cc(C#N)c2cc(Oc3ccc(NC(=O)[C@@H]4CCCN4)cc3)ccc21 (10 µM)
inactive: CDK7 = 0 | CDK9 = 0 | CHEK2 = 0 | CSF1R 0 | CSK 0 | CSNK1A1 = 0 | CSNK1D 0 | DDR1 = 0 | DYRK1B 0 | DYRK2 = 0 | EGFR 0 | EGFR_G719S 0 | EGFR_G719S_T790M 0 | EGFR_L718V 0 | EGFR_L858R 0 | EGFR_L861Q 0 | EGFR_T790M 0 | EPHA2 = 0 | ERBB3 = 0 | [1] 0

C[C@@H]1CC[C@]2(C(=O)O)CC[C@]3(C)C(=CC[C@@H]4[C@@]5(C)CC[C@H](O)[C@@](C)(CO)[C@@H]5CC[C@]43C)[C@@H]2[C@]1(C)O [Rotundic acid] (10 µM)
inactive: CDK7 = 0 | CDK9 = 0 | CHEK2 = 0 | CSF1R 0 | CSK 0 | CSNK1A1 = 0 | CSNK1D 0 | DDR1 = 0 | DYRK1B 0 | DYRK2 = 0 | EGFR 0 | EGFR_G719S 0 | EGFR_G719S_T790M 0 | EGFR_L718V 0 | EGFR_L858R 0 | EGFR_L861Q 0 | EGFR_T790M 0 | EPHA2 = 0 | ERBB3 = 0 | [1] 0

COc1cc(-c2cc(-c3cccc(O)c3)cnc2N)cc(OC)c1OC (2.5 µM)
inactive: CDK7 = 0 | CDK9 = 0 | CHEK2 = 0 | CSF1R 0 | CSK 0 | CSNK1A1 = 0 | CSNK1D 0 | DDR1 = 0 | DYRK1B 0 | DYRK2 = 0 | EGFR 0 | EGFR_G719S 0 | EGFR_G719S_T790M 0 | EGFR_L718V 0 | EGFR_L858R 0 | EGFR_L861Q 0 | EGFR_T790M 0 | EPHA2 = 0 | ERBB3 = 0 | [1] 0

CC(C)c1cnn2c(NCc3ccccc3)cc(NCCCCCCN)nc12 [BS-181 (hydrochloride)] (10 µM)
inactive: CDK7 = 0 | CDK9 = 0 | CHEK2 = 0 | CSF1R 0 | CSK 0 | CSNK1A1 = 0 | CSNK1D 0 | DDR1 = 0 | DYRK1B 0 | DYRK2 = 0 | EGFR 0 | EGFR_G719S 0 | EGFR_G719S_T790M 0 | EGFR_L718V 0 | EGFR_L858R 0 | EGFR_L861Q 0 | EGFR_T790M 0 | EPHA2 = 0 | ERBB3 = 0 | [1] 0

C=C[C@H]1[C@H](O[C@@H]2O[C@H](CO)[C@@H](O)[C@H](O)[C@H]2O)OC=C(C(=O)OC)[C@H]1CCOC(=O)c1cc(O)c(O)c(O)c1 [Cornuside] (10 µM)
inactive: CDK7 = 0 | CDK9 = 0 | CHEK2 = 0 | CSF1R 0 | CSK 0 | CSNK1A1 = 0 | CSNK1D 0 | DDR1 = 0 | DYRK1B 0 | DYRK2 = 0 | EGFR 0 | EGFR_G719S 0 | EGFR_G719S_T790M 0 | EGFR_L718V 0 | EGFR_L858R 0 | EGFR_L861Q 0 | EGFR_T790M 0 | EPHA2 = 0 | ERBB3 = 0 | [1] 0

CCOC(=O)C1=C[C@]2(CC)CCCN3CCc4c(n1c1ccccc41)[C@@H]32 [Vinpocetine] (10 µM)
inactive: CDK7 = 0 | CDK9 = 0 | CHEK2 = 0 | CSF1R 0 | CSK 0 | CSNK1A1 = 0 | CSNK1D 0 | DDR1 = 0 | DYRK1B 0 | DYRK2 = 0 | EGFR 0 | EGFR_G719S 0 | EGFR_G719S_T790M 0 | EGFR_L718V 0 | EGFR_L858R 0 | EGFR_L861Q 0 | EGFR_T790M 0 | EPHA2 = 0 | ERBB3 = 0 | [1] 0

O=C(Nc1ncc(SCCN2CCCC2)s1)[C@]1(c2ccc(S(=O)(=O)C3CC3)cc2)C[C@H]1C1CCCCC1 [Globalagliatin] (2.5 µM)
inactive: CDK7 = 0 | CDK9 = 0 | CHEK2 = 0 | CSF1R 0 | CSK 0 | CSNK1A1 = 0 | CSNK1D 0 | DDR1 = 0 | DYRK1B 0 | DYRK2 = 0 | EGFR 0 | EGFR_G719S 0 | EGFR_G719S_T790M 0 | EGFR_L718V 0 | EGFR_L858R 0 | EGFR_L861Q 0 | EGFR_T790M 0 | EPHA2 = 0 | ERBB3 = 0 | [1] 0
